# PubChem BioAssay AID504834 (National Center for Advancing Translational Sciences (NCATS), 2011)
# Among all 320,000 compounds or so, about 22,000 (6.9%) were called active. The inconclusive results got no clear call from the source; some entries with a clear call stand among them for comparison. Calls come from the whole dose curve; as a rule, active = well fitted inhibition curve with a large enough effect; inconclusive = small, poorly fitted or top-dose-only effect, or another doubt; inactive = no such curve, though single readings can be large or run the other way. A potency beside an inconclusive call is a rough fit, not a confirmed value.
# Test: Primary qHTS for delayed death inhibitors of the malarial parasite plastid, 96 hour incubation
# Conditions: P. falciparum luciferase reporter growth; series mostly up to 28.7 µM; activity change, negative = inhibition: at the top concentration
# Procedure, shortened: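 P. falciparum expressing integrated firefly luciferase, in erythrocytes at 2% hematocrit, 0.05% parasitemia, incubated with compounds 96 h at 37 C, 5% CO2. Growth inhibition read as loss of luminescence; two-generation exposure targets delayed-death apicoplast inhibitors.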
# % is set by controls: 0 for no effect and ±100 for the full control effect; potency is the fitted concentration of half-maximal effect.
SMILES,Potency,"activity change, negative = inhibition"
O=C(CC12CC3CC(CC(C3)C1)C2)N/N=C/c1ccncc1,"inconclusive: 7.38 µM [inhibitor, partial curve, poor fit]",
Cc1[nH]c(=O)[nH]c(=O)c1S(=O)(=O)N(C)Cc1ccccc1,"inconclusive: 7.38 µM [inhibitor, partial curve, poor fit]",
COC(=O)C1=CN(c2ccc(OC)cc2)C=C(C(=O)OC)C1c1ccc(C)c([N+](=O)[O-])c1,,inactive: 19.7%
Clc1ccc2c(NCc3ccccc3)ccnc2c1,"inconclusive: 0.465 µM [inhibitor, full curve]",
CCOC(=O)C(=O)Nc1ccccc1C(=O)NCc1ccccc1,"inconclusive: 2.62 µM [inhibitor, full curve, poor fit]",
CCCc1cc(=O)[nH]c(SCc2cccc(C)c2)n1,"inconclusive: 9.28 µM [inhibitor, partial curve, poor fit]",
CC1(C)OC(c2ccccc2)=C/C(=C/C=Nc2ccccc2)O1,"inconclusive: 18.5 µM [inhibitor, single point]",
CC1=NN(c2ccccc2)C(=O)C1N=Nc1ccc(N)cc1 (centres undefined),"inconclusive: 4.15 µM [inhibitor, single point]",
C=CCn1c(SCC(N)=O)nnc1-c1cnccn1,"inconclusive: 13.1 µM [inhibitor, single point]",
Cc1ccc(C(=O)NC(=S)Nc2ccc3[nH]c(=O)[nH]c3c2)c(C)c1,"inconclusive: 9.28 µM [inhibitor, single point]",
CCOc1ccc(C2Nc3ccccc3NC3=C2C(=O)CC(C)(C)C3)cc1OC (centres undefined),,inactive: -89.1%
CC1CCN(C(=O)c2ccc(CSc3nc4ccncc4n3Cc3ccc(F)cc3)cc2)CC1,"inconclusive: 18.5 µM [inhibitor, single point]",
CCCCn1c(=O)c(C(=O)Nc2ccccc2C)c(O)c2ccccc21,"inconclusive: 18.5 µM [inhibitor, single point]",
CC(C)c1nc(N2CCOCC2)c(C#N)c2c1CCC2,"inconclusive: 1.31 µM [inhibitor, partial curve, poor fit]",
O=C(NC1CCCC1)c1cccc(Oc2ccccc2)c1,"inconclusive: 13.1 µM [inhibitor, single point]",
Cc1nc(Sc2nnnn2C)c2c3c(sc2n1)CCC3,,inactive: 66.4%
O=C(CNS(=O)(=O)c1ccccc1)N1CCc2ccccc2C1,,inactive: 6.59%
Cc1cc(C)cc(-c2nnc(SCC(=O)NC3CC3)o2)c1,"inconclusive: 11.7 µM [inhibitor, single point]",
COc1ccc(NC(=O)CCc2nnc3ccc(N4CCN(c5cccc(OC)c5)CC4)nn23)cc1,active: 0.329 µM,
C/C(=N\OCc1nc2ccccc2c(=O)n1/N=C/c1cc(C)cc([N+](=O)[O-])c1O)c1ccccc1,"inconclusive: 11.7 µM [inhibitor, partial curve, poor fit]",
O=c1c(Cc2ccccc2)c(O)nc2n1CCS2,"inconclusive: 11.7 µM [inhibitor, single point]",
CCCCn1c(N)c(N(CCOC)C(=O)C2CCN(S(=O)(=O)c3ccc(C)cc3)CC2)c(=O)[nH]c1=O,,inactive: -11.4%

SMILES,Potency,"activity change, negative = inhibition"
CCOC(=O)N1CCC(N(CCCOC)C(=O)Nc2cccc(OC)c2)CC1,,inactive: 29%
Nc1nonc1C(=O)N/N=C/c1cccc([N+](=O)[O-])c1,,inactive: 20.8%
CCOC(=O)[C@H]1[C@H]2COc3ccccc3[C@@H]2N2C(=O)c3ccccc3NC(=O)[C@@]12C,"inconclusive: 18.5 µM [inhibitor, single point]",
Cc1ccc2c(c1)N(C(=O)CCC(=O)N1CCOCC1)CC(C)O2 (centres undefined),,inactive: 34.6%
O=C(NCCS(=O)(=O)N1CCN(Cc2ccccc2)CC1)c1ccccc1,,inactive: 10.3%
COc1ccc(-c2csc(NC(=O)CN3C(=O)NC4(CCCC4)C3=O)n2)cc1OC,,inactive: -12.3%
Cc1ccc(-n2c(SCCN)nnc2-c2cccc(C)c2)cc1,"inconclusive: 18.5 µM [inhibitor, partial curve, poor fit]",
CC(C)NC(=S)N=Nc1c(O)[nH]c2ccc([N+](=O)[O-])cc12,"inconclusive: 1.85 µM [inhibitor, full curve]",
COc1ccccc1CN(C)C(=O)c1cc(-c2cc(OC)c(OC)c(OC)c2)nc2ccccc12,"inconclusive: 4.15 µM [inhibitor, single point]",
C#CCN(C(=O)CC1C(=O)NCCN1C/C=C/c1ccccc1)C1CCCCC1 (centres undefined),active: 4.65 µM,
COc1ccc(CNC(=O)Cc2nn(C)c(=O)c3ccccc23)cc1,"inconclusive: 1.31 µM [inhibitor, full curve]",
Cc1cc(C(=O)OCC(=O)N2CC(=O)Nc3ccccc32)c(C)n1-c1ccccc1,"inconclusive: 18.5 µM [inhibitor, single point]",
Cc1cc(Cl)ccc1OCC(=O)N/N=C/c1ccncc1,,inactive: 28.4%
O=C1C=C(c2ccc(O)cc2)C[C@@H](c2ccc(Cl)cc2)C1,active: 2.33 µM,
O=C(CSc1nc2cc(Cl)ccc2s1)N1CCCc2ccccc21,"inconclusive: 8.28 µM [inhibitor, partial curve]",
O=[N+]([O-])c1ccn(-c2nc(-c3cccs3)cc(C(F)(F)F)n2)n1,"inconclusive: 3.29 µM [inhibitor, partial curve, poor fit]",
CN1c2cccc3cccc(c23)N(C)C1c1cccs1,"inconclusive: 11.7 µM [inhibitor, partial curve, poor fit]",
C=C(C)n1c(=O)n(Cc2ccccc2C)c2ccccc21,,inactive: -5.52%
CCOc1ccccc1CNCC1CCCO1 (centres undefined),"inconclusive: 18.5 µM [inhibitor, single point]",
Cc1ccc2nc(NC(=O)C3CCCN(S(=O)(=O)c4cccc5nonc45)C3)sc2c1 (centres undefined),"inconclusive: 2.62 µM [inhibitor, single point]",
Cc1ccc(C)c(-n2c(-c3ccc4c(c3)OCO4)n[nH]c2=S)c1,"inconclusive: 0.0738 µM [inhibitor, full curve, poor fit]",
COc1cccc(CNC(=O)c2ccc(C3SCCS3)cc2)c1,"inconclusive: 18.5 µM [inhibitor, single point]",

# Three entries from above, ordered by molecular weight, falling.
SMILES,Potency,"activity change, negative = inhibition"
O=[N+]([O-])c1ccn(-c2nc(-c3cccs3)cc(C(F)(F)F)n2)n1,"inconclusive: 3.29 µM [inhibitor, partial curve, poor fit]",
Cc1ccc(C)c(-n2c(-c3ccc4c(c3)OCO4)n[nH]c2=S)c1,"inconclusive: 0.0738 µM [inhibitor, full curve, poor fit]",
Nc1nonc1C(=O)N/N=C/c1cccc([N+](=O)[O-])c1,,inactive: 20.8%
